{"sequences": {"note": "The chains behind the UniProt entries cited, without tags or fusion partners. Where a name states a change or a piece, a line headed by the entry shows the natural chain unless it says otherwise. Residues count along the entry.", "UniProt P18858": "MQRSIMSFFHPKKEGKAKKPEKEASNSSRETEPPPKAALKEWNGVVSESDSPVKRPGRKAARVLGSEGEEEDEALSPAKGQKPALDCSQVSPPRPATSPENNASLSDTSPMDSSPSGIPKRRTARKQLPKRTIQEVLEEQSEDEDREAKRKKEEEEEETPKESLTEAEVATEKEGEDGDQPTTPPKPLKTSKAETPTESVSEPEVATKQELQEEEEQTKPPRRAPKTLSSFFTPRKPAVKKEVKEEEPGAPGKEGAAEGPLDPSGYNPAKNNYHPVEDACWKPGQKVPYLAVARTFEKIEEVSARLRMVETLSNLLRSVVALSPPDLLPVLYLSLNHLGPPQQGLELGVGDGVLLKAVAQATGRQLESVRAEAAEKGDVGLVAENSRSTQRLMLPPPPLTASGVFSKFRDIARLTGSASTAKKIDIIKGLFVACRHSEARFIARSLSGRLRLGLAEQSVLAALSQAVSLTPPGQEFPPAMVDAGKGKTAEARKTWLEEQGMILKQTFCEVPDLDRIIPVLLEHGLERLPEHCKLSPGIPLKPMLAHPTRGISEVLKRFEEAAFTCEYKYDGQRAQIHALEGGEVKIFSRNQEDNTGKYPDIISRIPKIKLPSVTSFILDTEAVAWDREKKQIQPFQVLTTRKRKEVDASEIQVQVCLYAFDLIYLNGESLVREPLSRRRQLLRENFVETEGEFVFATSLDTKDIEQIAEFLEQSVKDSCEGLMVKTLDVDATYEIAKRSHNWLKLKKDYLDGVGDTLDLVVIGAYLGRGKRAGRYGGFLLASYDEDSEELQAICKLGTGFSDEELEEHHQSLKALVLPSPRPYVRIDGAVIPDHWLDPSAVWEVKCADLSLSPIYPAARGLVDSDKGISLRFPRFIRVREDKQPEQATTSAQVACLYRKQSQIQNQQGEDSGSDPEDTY", "UniProt O15243": "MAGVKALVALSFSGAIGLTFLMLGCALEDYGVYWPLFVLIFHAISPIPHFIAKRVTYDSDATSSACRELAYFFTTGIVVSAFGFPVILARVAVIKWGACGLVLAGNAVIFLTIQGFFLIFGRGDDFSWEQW", "UniProt Q9BRT6": "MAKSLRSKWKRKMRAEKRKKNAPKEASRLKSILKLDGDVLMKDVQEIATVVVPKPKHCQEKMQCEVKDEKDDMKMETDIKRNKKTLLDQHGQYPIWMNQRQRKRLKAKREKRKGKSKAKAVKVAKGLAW", "UniProt Q8NG31": "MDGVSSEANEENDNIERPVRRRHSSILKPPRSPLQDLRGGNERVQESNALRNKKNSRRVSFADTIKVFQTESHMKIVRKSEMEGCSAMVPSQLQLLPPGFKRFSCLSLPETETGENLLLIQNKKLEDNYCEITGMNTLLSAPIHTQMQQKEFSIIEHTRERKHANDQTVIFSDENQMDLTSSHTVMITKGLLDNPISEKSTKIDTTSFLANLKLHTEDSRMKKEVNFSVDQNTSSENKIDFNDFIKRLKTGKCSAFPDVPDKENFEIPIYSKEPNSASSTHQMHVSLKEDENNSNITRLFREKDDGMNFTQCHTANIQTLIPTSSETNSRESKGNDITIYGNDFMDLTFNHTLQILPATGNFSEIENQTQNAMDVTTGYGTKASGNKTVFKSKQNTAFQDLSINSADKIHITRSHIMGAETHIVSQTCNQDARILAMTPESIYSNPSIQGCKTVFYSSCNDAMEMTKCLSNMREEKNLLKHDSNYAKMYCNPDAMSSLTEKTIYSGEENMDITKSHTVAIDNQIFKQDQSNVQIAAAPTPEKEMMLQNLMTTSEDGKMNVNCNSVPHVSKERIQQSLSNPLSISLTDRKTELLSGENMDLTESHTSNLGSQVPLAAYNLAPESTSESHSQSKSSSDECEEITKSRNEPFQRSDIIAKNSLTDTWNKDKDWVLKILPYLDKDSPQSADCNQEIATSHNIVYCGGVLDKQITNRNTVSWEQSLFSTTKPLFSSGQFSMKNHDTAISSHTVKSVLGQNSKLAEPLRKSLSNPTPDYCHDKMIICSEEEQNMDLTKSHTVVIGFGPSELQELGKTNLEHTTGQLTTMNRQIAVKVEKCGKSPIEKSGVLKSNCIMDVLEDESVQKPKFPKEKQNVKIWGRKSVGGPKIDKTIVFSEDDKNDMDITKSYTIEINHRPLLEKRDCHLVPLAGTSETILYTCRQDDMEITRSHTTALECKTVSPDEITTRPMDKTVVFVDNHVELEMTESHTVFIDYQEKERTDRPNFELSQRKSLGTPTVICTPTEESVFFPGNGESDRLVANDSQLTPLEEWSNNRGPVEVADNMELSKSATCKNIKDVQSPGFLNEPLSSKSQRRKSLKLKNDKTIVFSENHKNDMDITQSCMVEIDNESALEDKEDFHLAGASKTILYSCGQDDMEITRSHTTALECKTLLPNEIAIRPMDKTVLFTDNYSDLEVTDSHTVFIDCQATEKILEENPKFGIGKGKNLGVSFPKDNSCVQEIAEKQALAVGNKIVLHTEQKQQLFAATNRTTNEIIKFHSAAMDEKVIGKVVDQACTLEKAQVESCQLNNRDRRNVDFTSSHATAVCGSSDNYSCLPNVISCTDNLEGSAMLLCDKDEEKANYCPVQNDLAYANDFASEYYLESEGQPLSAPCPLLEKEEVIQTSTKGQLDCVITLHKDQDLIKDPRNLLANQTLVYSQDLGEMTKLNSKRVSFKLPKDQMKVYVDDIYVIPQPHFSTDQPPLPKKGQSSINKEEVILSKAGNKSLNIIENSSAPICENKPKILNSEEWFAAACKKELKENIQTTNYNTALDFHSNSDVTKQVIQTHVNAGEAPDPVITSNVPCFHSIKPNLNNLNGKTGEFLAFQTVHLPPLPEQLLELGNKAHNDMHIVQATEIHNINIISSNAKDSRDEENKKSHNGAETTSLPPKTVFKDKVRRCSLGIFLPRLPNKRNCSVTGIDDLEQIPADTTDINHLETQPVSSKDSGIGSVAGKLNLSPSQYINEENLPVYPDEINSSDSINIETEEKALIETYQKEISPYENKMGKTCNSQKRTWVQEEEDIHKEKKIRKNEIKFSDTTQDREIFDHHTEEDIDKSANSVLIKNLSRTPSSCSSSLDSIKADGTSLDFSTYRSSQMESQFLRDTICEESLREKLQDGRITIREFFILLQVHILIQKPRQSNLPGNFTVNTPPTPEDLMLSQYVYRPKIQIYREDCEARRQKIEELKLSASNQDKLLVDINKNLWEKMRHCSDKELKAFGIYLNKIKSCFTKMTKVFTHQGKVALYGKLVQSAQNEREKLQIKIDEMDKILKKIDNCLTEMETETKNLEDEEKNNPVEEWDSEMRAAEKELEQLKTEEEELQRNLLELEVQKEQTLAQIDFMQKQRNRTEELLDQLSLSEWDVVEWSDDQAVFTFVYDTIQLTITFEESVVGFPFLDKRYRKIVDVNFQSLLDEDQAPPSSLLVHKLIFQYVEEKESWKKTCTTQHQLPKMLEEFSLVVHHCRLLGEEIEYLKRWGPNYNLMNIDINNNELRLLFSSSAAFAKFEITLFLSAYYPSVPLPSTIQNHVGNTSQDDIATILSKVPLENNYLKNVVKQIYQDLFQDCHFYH", "UniProt Q1ED39": "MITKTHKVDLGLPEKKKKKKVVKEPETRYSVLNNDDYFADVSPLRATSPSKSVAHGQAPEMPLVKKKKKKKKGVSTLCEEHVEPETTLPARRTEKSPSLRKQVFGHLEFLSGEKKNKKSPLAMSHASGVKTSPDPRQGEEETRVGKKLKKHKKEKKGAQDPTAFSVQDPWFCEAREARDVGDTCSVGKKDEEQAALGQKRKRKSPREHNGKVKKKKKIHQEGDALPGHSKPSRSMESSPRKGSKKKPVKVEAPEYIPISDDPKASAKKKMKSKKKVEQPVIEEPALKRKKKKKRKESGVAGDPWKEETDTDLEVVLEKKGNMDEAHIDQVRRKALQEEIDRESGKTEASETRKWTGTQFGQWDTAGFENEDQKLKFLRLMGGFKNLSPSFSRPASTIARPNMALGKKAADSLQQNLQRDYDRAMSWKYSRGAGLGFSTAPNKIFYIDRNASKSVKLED", "UniProt P36776": "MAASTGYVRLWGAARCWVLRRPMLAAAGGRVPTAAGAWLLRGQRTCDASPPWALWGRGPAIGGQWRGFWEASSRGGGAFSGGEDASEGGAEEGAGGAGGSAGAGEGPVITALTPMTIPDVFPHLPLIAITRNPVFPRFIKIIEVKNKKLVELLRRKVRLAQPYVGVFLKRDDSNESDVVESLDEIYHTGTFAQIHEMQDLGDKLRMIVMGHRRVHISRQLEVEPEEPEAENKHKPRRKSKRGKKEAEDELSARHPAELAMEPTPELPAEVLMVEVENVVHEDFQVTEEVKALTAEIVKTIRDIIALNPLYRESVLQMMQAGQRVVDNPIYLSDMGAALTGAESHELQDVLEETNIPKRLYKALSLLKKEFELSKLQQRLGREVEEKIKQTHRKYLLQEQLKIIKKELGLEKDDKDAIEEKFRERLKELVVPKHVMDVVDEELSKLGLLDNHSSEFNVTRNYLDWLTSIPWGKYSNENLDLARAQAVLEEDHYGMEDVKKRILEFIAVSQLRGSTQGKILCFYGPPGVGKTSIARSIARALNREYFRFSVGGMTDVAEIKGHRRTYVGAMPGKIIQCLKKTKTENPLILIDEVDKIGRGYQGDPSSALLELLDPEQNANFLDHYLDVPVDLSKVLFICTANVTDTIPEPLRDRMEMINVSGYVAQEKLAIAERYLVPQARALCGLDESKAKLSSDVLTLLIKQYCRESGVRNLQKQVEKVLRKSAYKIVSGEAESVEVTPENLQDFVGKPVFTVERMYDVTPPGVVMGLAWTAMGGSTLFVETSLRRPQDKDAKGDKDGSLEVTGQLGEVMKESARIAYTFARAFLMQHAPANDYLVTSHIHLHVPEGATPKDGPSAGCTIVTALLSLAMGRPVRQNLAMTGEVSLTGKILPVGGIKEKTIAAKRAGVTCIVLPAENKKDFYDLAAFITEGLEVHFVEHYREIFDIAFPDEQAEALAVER", "UniProt Q9P2J3": "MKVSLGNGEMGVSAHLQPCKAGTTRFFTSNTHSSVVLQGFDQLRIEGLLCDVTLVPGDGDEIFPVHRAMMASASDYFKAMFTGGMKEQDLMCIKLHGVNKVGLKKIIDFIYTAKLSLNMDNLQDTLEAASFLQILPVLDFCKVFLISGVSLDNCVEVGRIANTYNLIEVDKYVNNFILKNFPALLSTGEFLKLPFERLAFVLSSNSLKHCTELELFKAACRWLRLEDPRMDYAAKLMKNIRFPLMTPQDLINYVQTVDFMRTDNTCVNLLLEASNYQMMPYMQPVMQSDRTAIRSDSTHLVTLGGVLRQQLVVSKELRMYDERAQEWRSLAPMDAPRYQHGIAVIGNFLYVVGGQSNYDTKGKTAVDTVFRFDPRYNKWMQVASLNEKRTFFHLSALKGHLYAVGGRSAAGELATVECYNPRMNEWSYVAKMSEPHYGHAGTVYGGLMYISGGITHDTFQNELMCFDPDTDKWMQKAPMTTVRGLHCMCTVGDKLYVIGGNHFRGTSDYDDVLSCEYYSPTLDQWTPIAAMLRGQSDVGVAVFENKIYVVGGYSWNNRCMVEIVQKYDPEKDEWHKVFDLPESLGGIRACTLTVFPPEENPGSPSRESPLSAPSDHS", "UniProt Q9UHB6": "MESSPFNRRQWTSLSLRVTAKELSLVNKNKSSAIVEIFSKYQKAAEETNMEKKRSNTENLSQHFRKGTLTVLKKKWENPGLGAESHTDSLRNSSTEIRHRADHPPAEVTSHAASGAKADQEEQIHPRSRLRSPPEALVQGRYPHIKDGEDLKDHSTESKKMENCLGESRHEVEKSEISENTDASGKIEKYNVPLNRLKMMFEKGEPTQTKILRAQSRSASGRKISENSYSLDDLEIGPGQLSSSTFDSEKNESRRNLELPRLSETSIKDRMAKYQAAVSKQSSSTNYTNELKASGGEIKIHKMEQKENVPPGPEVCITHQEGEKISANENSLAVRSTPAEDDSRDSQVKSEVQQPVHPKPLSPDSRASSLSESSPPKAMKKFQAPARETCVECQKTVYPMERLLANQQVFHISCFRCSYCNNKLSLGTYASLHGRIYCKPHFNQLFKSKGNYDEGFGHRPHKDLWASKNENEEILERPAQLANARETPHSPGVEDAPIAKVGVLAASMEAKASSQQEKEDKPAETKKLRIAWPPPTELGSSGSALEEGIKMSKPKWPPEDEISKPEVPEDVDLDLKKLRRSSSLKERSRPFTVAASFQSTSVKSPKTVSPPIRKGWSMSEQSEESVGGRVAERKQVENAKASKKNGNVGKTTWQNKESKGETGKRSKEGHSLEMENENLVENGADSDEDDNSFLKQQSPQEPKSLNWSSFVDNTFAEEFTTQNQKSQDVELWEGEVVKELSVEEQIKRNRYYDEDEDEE", "UniProt Q9UPQ0, 2-29": "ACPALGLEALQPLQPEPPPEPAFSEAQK"}, "source": "the supplement of paper PMC11732987", "about": "“Enantioselective OTUD7B fragment discovery through chemoproteomics screening and high-throughput optimisation” (Communications Chemistry, 2025)", "note": "Some of the results follow. The data scatter; read single values as rough."}
{"compound": "ClCC(=O)N[C@H]1CCCc2ccccc12", "assay": "log2 mean competition ratio of IA-DTB cysteine labelling (DMSO/compound) (log2 ratio); higher = stronger cysteine engagement by compound", "conditions": "50 µM; treatment time: 4 h; cell line lysate: HEK293T", "description": "(§1)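 IA-DTB competitive cysteine chemoproteomics in HEK293T RIPA lysate. Lysates were treated with compound 29 or 30 at 50 or 200 µM for 4 h, then IA-DTB (500 µM, 1 h), trypsin-digested, NeutrAvidin-enriched and analysed by diaPASEF. Competition ratio = intensity DMSO / intensity compound (n=4 treated, n=64 DMSO); binding: mean log2 CR ≥ 1 and p ≤ 0.05 plus QC filters. Target is the cysteine site.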"}
{"target": "KIFBP C371 (UniProt Q96EK5)", "log2 mean competition ratio": -0.0323}
{"target": "LIG1 C846 (UniProt P18858)", "log2 mean competition ratio": -0.0208}
{"target": "LCMT2 C133 (UniProt O60294)", "log2 mean competition ratio": -0.145}
{"target": "LEPROT C66 (UniProt O15243)", "log2 mean competition ratio": 0.0899}
{"target": "LLPH C64 (UniProt Q9BRT6)", "log2 mean competition ratio": -0.0987}
{"target": "LIG1 C565 (UniProt P18858)", "log2 mean competition ratio": -0.468}
{"target": "KNL1 C2216 (UniProt Q8NG31)", "log2 mean competition ratio": 0.301}
{"target": "LGR4 C339", "log2 mean competition ratio": 0.143}
{"target": "LAP3 C129 (UniProt P28838)", "log2 mean competition ratio": 0.014}
{"target": "KMT2D C369 (UniProt O14686)", "log2 mean competition ratio": -0.118}
{"target": "KIF7 C1065", "log2 mean competition ratio": -0.0943}
{"target": "KNOP1 C172 (UniProt Q1ED39)", "log2 mean competition ratio": -0.741}
{"target": "LONP1 C909 (UniProt P36776)", "log2 mean competition ratio": -0.595}
{"target": "KLHL9 C559 (UniProt Q9P2J3)", "log2 mean competition ratio": -0.172}
{"target": "LIMA1 C164 (UniProt Q9UHB6)", "log2 mean competition ratio": 0.0523}
{"target": "LIMCH1 C3 (UniProt Q9UPQ0)", "log2 mean competition ratio": 0.461}
{"target": "KNL1 C1291 (UniProt Q8NG31)", "log2 mean competition ratio": -0.205}
{"target": "KLHL41 C147 (UniProt O60662)", "log2 mean competition ratio": -0.0602}
{"target": "LONP1 C682 (UniProt P36776)", "log2 mean competition ratio": -0.065}
{"target": "LLGL1 C1059 (UniProt Q15334)", "log2 mean competition ratio": -0.263}
{"compound": "ClCC(=O)N[C@H]1CCCc2ccccc12", "assay": "log2 mean competition ratio of IA-DTB cysteine labelling (DMSO/compound) (log2 ratio); higher = stronger cysteine engagement by compound", "conditions": "200 µM; treatment time: 4 h; cell line lysate: HEK293T", "description": "as §1"}
{"target": "KIFBP C371 (UniProt Q96EK5)", "log2 mean competition ratio": 0.00863}
{"target": "LIG1 C846 (UniProt P18858)", "log2 mean competition ratio": -0.328}
{"target": "LCMT2 C133 (UniProt O60294)", "log2 mean competition ratio": 0.0602}
{"target": "LEPROT C66 (UniProt O15243)", "log2 mean competition ratio": 0.0946}
{"target": "LLPH C64 (UniProt Q9BRT6)", "log2 mean competition ratio": 0.174}
{"target": "LIG1 C565 (UniProt P18858)", "log2 mean competition ratio": -0.00265}
{"target": "KNL1 C2216 (UniProt Q8NG31)", "log2 mean competition ratio": -0.136}
{"target": "LGR4 C339", "log2 mean competition ratio": -0.125}
{"target": "LAP3 C129 (UniProt P28838)", "log2 mean competition ratio": 0.149}
{"target": "KMT2D C369 (UniProt O14686)", "log2 mean competition ratio": 0.0041}
{"target": "KIF7 C1065", "log2 mean competition ratio": -0.0689}
{"target": "KNOP1 C172 (UniProt Q1ED39)", "log2 mean competition ratio": 0.0322}
{"target": "LONP1 C909 (UniProt P36776)", "log2 mean competition ratio": -0.314}
{"target": "KLHL9 C559 (UniProt Q9P2J3)", "log2 mean competition ratio": -0.0876}
{"target": "LIMA1 C164 (UniProt Q9UHB6)", "log2 mean competition ratio": -0.0149}
{"target": "LIMCH1 C3 (UniProt Q9UPQ0)", "log2 mean competition ratio": -0.424}
{"target": "KNL1 C1291 (UniProt Q8NG31)", "log2 mean competition ratio": 0.16}
{"target": "KLHL41 C147 (UniProt O60662)", "log2 mean competition ratio": -0.026}
{"target": "LONP1 C682 (UniProt P36776)", "log2 mean competition ratio": 0.0472}
{"target": "LLGL1 C1059 (UniProt Q15334)", "log2 mean competition ratio": -0.115}
